Assay results taken from the supplement of paper PMC10849652.
This is one part of the list.

The chains behind the UniProt entries cited, without tags or fusion partners. Where a name states a change or a piece, a line headed by the entry shows the natural chain unless it says otherwise.
UniProt O43583: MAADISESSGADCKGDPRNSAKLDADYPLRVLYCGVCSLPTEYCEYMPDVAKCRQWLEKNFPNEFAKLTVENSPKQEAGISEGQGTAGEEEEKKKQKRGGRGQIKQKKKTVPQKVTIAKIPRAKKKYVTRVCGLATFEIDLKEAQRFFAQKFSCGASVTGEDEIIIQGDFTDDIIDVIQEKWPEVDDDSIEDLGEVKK
UniProt Q9BTC0, whole entry, looked up: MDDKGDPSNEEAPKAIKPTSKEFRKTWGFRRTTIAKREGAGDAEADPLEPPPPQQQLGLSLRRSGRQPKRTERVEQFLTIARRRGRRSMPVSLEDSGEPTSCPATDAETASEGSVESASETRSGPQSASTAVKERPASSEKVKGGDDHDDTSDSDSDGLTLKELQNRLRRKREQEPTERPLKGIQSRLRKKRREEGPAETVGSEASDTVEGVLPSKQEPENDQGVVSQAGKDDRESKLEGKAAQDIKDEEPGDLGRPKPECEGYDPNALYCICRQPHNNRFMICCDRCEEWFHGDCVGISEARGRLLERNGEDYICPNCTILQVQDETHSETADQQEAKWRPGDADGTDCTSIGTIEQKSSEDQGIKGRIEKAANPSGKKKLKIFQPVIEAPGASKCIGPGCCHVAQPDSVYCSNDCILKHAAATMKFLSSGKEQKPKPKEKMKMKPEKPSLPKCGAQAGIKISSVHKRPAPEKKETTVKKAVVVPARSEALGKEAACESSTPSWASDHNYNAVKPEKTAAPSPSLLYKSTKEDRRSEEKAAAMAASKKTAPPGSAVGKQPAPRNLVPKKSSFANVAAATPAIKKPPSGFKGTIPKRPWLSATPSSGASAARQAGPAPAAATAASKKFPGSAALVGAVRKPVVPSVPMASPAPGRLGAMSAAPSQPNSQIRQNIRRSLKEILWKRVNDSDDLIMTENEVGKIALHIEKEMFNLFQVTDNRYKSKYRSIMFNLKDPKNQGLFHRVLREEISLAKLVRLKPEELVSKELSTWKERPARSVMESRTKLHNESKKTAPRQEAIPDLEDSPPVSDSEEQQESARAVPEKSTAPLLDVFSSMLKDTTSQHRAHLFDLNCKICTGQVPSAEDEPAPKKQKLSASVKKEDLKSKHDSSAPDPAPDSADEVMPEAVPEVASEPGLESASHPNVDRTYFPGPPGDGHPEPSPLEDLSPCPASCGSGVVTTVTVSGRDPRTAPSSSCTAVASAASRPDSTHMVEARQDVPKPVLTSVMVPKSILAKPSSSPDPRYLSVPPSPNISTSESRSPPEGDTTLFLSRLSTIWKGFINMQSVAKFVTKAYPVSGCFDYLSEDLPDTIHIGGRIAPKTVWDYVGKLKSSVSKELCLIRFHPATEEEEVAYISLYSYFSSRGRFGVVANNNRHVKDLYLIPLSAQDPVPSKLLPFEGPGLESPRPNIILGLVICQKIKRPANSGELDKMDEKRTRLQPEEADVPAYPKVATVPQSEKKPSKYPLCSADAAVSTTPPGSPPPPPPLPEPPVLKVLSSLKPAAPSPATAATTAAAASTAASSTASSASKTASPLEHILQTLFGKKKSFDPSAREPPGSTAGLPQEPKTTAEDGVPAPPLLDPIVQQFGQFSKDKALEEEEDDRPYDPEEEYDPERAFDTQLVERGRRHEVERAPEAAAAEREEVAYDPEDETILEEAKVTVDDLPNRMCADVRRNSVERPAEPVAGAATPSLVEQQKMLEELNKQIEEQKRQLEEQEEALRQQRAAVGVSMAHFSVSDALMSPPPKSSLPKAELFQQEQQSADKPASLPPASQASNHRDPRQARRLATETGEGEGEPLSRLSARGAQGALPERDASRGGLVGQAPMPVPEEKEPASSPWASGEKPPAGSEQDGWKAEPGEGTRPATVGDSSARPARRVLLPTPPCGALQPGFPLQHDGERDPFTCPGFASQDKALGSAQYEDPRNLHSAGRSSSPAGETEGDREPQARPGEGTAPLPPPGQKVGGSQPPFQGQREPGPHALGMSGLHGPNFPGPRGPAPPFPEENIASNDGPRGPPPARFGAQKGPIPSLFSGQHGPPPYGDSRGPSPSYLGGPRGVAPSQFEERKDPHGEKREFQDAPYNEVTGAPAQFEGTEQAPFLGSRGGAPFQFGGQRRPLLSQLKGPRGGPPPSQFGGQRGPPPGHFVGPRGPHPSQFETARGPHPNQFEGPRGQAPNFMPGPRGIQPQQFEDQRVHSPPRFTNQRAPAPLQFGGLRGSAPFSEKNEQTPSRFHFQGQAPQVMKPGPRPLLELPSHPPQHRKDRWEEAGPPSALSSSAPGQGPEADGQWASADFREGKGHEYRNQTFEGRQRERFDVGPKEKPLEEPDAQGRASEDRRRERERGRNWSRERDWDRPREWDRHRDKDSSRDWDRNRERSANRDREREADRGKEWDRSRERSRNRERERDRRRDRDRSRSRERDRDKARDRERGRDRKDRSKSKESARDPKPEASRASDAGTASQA
UniProt Q86XP3: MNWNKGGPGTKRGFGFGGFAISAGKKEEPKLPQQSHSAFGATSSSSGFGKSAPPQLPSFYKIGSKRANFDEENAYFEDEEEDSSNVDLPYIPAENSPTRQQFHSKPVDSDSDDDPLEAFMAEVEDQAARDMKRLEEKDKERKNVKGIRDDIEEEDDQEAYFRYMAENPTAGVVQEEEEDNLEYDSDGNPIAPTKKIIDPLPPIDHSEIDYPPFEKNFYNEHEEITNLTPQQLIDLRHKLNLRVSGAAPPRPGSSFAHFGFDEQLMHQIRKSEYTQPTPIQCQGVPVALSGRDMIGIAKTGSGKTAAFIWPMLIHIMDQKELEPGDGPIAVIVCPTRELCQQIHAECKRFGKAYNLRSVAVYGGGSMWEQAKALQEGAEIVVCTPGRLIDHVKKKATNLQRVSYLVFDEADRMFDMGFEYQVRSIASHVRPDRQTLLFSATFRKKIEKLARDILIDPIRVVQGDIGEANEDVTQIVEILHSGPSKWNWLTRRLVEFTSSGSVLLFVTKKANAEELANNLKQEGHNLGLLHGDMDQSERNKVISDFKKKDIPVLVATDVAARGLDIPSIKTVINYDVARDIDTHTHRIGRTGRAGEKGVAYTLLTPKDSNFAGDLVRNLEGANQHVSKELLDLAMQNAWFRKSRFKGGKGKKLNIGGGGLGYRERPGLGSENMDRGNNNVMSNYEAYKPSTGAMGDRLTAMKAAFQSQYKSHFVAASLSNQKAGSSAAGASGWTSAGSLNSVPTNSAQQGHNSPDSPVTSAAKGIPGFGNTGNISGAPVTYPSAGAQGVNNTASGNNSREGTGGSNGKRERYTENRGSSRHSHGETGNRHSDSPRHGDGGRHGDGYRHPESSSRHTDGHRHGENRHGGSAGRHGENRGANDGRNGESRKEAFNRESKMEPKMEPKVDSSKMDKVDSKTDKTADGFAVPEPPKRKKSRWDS
UniProt Q86Y56: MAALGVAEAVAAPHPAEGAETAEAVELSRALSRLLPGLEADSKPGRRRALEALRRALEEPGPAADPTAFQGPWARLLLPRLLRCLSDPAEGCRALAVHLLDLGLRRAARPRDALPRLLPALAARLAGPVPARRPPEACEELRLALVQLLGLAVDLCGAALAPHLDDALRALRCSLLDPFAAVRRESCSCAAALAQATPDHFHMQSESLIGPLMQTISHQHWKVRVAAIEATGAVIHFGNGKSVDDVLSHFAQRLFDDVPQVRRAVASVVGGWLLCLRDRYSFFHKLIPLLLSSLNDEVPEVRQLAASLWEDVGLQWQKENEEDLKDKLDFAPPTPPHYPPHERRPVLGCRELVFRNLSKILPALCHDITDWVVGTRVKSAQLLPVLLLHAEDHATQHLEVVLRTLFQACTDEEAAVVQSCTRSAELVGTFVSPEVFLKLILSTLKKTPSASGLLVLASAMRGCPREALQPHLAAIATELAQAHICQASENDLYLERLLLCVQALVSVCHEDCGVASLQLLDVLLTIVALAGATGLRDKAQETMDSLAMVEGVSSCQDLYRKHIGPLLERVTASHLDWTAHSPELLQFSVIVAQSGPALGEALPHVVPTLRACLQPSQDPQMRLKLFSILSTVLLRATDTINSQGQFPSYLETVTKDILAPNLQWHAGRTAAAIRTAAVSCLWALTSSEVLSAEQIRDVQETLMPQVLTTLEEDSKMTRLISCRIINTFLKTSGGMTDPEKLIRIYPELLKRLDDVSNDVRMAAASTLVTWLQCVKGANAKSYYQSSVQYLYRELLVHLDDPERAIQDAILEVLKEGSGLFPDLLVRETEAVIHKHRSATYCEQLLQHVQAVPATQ
UniProt Q5VZ89: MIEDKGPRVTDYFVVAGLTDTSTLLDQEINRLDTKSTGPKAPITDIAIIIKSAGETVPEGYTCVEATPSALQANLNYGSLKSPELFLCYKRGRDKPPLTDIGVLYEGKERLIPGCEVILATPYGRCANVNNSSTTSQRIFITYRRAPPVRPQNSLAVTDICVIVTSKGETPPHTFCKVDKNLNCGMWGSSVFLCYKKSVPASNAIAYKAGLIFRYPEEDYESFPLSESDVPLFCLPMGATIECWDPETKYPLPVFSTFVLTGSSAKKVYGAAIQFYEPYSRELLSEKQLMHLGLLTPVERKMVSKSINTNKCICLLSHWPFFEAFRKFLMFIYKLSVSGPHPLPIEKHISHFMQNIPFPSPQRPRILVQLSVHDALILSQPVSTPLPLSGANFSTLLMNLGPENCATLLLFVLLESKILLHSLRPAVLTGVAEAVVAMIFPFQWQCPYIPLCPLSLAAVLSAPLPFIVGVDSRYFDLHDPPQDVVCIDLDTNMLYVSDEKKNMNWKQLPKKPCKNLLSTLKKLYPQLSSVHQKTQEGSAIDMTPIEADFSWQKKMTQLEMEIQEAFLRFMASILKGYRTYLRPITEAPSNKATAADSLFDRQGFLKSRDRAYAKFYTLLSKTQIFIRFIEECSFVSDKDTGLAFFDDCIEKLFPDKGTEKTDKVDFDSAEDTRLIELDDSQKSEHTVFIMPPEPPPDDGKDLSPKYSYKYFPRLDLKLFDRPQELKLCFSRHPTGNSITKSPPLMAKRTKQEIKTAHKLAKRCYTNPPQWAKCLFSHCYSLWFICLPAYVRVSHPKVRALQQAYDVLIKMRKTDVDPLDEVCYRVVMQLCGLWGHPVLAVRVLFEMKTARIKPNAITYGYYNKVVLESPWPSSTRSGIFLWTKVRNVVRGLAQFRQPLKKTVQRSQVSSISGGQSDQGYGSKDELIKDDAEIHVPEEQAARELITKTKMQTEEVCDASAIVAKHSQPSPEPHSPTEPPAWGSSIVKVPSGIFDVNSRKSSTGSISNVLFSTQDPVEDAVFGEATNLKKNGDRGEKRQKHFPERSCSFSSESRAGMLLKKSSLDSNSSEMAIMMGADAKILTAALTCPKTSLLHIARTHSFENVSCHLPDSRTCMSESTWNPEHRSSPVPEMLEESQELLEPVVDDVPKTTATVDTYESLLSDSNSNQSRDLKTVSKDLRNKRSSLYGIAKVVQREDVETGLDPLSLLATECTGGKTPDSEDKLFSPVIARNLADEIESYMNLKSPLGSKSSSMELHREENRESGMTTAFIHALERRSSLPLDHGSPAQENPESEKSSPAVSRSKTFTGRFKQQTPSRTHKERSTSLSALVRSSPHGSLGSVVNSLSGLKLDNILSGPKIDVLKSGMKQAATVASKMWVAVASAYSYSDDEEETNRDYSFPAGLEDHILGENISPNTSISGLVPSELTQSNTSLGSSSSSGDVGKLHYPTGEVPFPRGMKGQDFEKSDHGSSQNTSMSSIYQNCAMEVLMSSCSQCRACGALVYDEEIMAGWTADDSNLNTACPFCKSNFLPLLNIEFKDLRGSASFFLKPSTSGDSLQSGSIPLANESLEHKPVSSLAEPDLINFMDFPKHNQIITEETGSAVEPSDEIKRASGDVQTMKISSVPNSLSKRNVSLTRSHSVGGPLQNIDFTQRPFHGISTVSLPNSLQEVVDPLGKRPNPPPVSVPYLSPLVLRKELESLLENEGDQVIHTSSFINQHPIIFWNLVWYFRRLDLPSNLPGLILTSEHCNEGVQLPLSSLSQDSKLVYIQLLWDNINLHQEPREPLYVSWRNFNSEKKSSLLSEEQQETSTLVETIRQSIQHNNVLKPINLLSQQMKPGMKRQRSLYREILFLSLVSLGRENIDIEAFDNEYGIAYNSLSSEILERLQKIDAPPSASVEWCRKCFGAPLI
UniProt Q02127: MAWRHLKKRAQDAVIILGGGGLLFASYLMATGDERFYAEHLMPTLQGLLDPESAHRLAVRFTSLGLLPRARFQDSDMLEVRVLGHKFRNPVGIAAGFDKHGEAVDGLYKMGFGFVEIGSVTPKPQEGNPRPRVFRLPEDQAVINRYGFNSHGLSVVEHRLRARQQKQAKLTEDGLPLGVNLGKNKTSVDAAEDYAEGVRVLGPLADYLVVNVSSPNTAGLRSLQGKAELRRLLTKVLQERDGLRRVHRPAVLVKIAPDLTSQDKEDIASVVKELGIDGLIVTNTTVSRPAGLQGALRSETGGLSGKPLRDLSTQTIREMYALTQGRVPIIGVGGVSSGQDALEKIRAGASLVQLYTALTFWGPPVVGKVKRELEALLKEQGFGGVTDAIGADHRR

Tests used:
Test in all cases: log2 fold change, soluble protein after heating vs DMSO (PISA); higher = thermal stabilisation; K562 cells, 10 uM, 30 min; active = over 0.2 and 3.5 SD of the protein, either way, in both replicates (recomputed)
[1] = compound: CS(=O)(=O)c1ccc(-c2cnc(N)c(C(=O)Nc3ccccc3)n2)cc1
Outline: (§1)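 K562 cells at 2×10^6 cells/mL were exposed to 10 μM compound for 30 min, then aliquots were heated for 3 min across 48°C-58°C, pooled, and extracted in PBS containing 0.5% NP-40 at 4°C. The supernatant after 21,000xg for 90 min was taken as soluble protein and measured by TMTpro 16plex LC-MS/MS with channel sums equalised. Thermal stability is reported relative to control samples, with values from duplicates. Fold changes are given on a log2 scale.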

[2] = compound: C[C@@H](Oc1cc(-c2cnn(C3CCNCC3)c2)cnc1N)c1c(Cl)ccc(F)c1Cl [crizotinib]
Outline: as §1

[3] = compound: C[C@@H]1COCCN1C2=NC(=NC(=C2)C3(CC3)S(=O)(=O)C)C4=C5C=CNC5=CC=C4
Outline: as §1

[4] = compound: C[C@H](C1=CC=C(C=C1)C(=O)NC2=C3C=CNC3=NC=C2)N
Outline: as §1

[5] = compound: C[C@H](Nc1ncnc2nc[nH]c12)c1cc2cccc(Cl)c2c(=O)n1-c1ccccc1 [duvelisib]
Outline: as §1

[6] = compound: Cc1cc(Nc2cc(N3CCN(C)CC3)nc(Sc3ccc(NC(=O)C4CC4)cc3)n2)n[nH]1 [tozasertib]
Outline: as §1

[7] = compound: Cc1cc(SCc2sc(-c3ccc(C(F)(F)F)cc3)nc2C)ccc1OCC(=O)O
Outline: as §1

[8] = compound: Cc1ccc(-n2nc(C(C)(C)C)cc2NC(=O)Nc2ccc(OCCN3CCOCC3)c3ccccc23)cc1 [doramapimod]
Outline: as §1

[9] = compound: Cc1ccc(C(=O)N(CCCN)[C@@H](c2nc3cc(Cl)ccc3c(=O)n2Cc2ccccc2)C(C)C)cc1 [ispinesib]
Outline: as §1

[10] = compound: Cc1ccc(NC(=O)c2ccc(CN3CC[C@H](N(C)C)C3)c(C(F)(F)F)c2)cc1Nc1nccc(-c2cncnc2)n1 [bafetinib]
Outline: as §1

[11] = compound: Cc1cn(-c2cc(NC(=O)c3ccc(C)c(Nc4nccc(-c5cccnc5)n4)c3)cc(C(F)(F)F)c2)cn1 [nilotinib]
Outline: as §1

[12] = compound: Cc1nc(Nc2n[nH]c3c2CN(C(=O)N[C@H](CN(C)C)c2ccccc2)C3(C)C)c2sccc2n1
Outline: as §1

[13] = compound: Cc1nc(Nc2ncc(C(=O)Nc3c(C)cccc3Cl)s2)cc(N2CCN(CCO)CC2)n1 [dasatinib]
Outline: as §1

[14] = compound: Cc1ncc(-c2ccnc(Nc3ccc(S(C)(=O)=O)cc3)n2)n1C(C)C
Outline: as §1

[15] = compound: Cn1cc(-c2ccc3c(c2)CCN3C(=O)Cc2cccc(C(F)(F)F)c2)c2c(N)ncnc21
Outline: as §1

[16] = compound: Cn1cc(-c2ccc3nnc(C(F)(F)c4ccc5ncccc5c4)n3n2)cn1
Outline: as §1

[17] = compound: Cn1cncc1[C@@](N)(c1ccc(Cl)cc1)c1ccc2c(c1)c(-c1cccc(Cl)c1)cc(=O)n2C [tipifarnib]
Outline: as §1

[18] = compound: FC(F)(F)c1ccc(/C=C/c2nc(COc3ccc(CCCCn4ccnn4)cc3)co2)cc1 [mubritinib]
Outline: as §1

[19] = compound: Cc1cc(Nc2cc(CN3CCOCC3)c3nc(C)c(Cc4ccc(Cl)cc4F)n3n2)n[nH]1 [gandotinib]
Outline: as §1

[20] = compound: Cc1cccc(CC(=O)N2CCc3c2ccc(-c2cn(C)c4ncnc(N)c24)c3F)n1
Outline: as §1

Measured: log2 fold change

DNAH8 (UniProt Q96JB1)
inactive: [1] 0.046 | [2] 0.033 | [3] 0.055 | [4] 0.042 | [5] 0.104 | [6] -0.187 | [7] 0.09 | [8] 0.214 | [9] 0.075 | [10] -0.021 | [11] -0.084 | [12] 0.054 | [13] 0.002 | [14] 0.078 | [15] 0.007 | [16] 0.038 | [17] -0.184 | [18] -0.066

DDX47 (UniProt Q9H0S4)
inactive: [1] 0.08 | [2] 0.038 | [3] -0.395 | [4] 0.475 | [5] -0.25 | [7] -0.002 | [8] 0.139 | [9] 0.063 | [10] 0.044 | [11] 0.243 | [12] 0.202 | [13] 0.207 | [14] 0.184 | [15] -0.119 | [16] -0.153 | [18] 0.097

DLG3 (UniProt Q92796)
inactive: [1] 0.008 | [2] 0.013 | [3] 0.121 | [4] 0.12 | [5] -0.002 | [19] 0.033 | [6] -0.062 | [7] 0.012 | [8] -0.034 | [9] 0.082 | [10] -0.018 | [20] 0.087 | [11] 0.005 | [12] 0.019 | [13] -0.019 | [14] -0.041 | [15] 0.136 | [16] -0.089 | [17] 0.089 | [18] 0.06

DENR (UniProt O43583)
inactive: [1] 0.007 | [2] 0.036 | [3] 0.019 | [4] -0.027 | [5] -0.004 | [19] 0.011 | [6] -0.018 | [7] -0.042 | [8] -0.05 | [9] 0.031 | [10] -0.024 | [20] -0.039 | [11] 0.044 | [12] -0.005 | [13] 0.072 | [14] -0.025 | [15] -0.019 | [16] 0.023 | [17] 0.074 | [18] 0.02

DIDO1 (UniProt Q9BTC0)
inactive: [1] 0.052 | [2] -0.159 | [3] 0.046 | [4] 0.093 | [5] -0.089 | [19] -0.119 | [6] 0.129 | [7] 0.088 | [8] 0.006 | [9] -0.301 | [20] 0.002 | [13] -0.135 | [15] 0.017 | [16] -0.028 | [17] 0.257 | [18] 0.074

DDX42 (UniProt Q86XP3)
inactive: [1] 0.069 | [2] 0.031 | [3] 0.356 | [4] 0.032 | [5] 0.26 | [19] -0.131 | [6] -0.009 | [7] 0.216 | [8] 0.139 | [9] 0.059 | [10] 0.109 | [20] 0.04 | [13] -0.339 | [15] -0.098 | [16] 0.026 | [17] -0.244

DIS3L (UniProt Q8TF46)
inactive: [1] 0.227 | [2] -0.038 | [3] -0.073 | [4] 0.197 | [5] 0.21 | [6] -0.098 | [7] -0.11 | [8] 0.107 | [9] 0.003 | [11] 0.146 | [12] 0.09 | [13] -0.085 | [14] -0.071 | [15] -0.226 | [16] -0.312 | [17] 0.169 | [18] -0.37

DHX38 (UniProt Q92620)
inactive: [1] -0.005 | [2] 0.013 | [3] 0.044 | [4] 0.015 | [5] 0.03 | [19] 0.079 | [6] -0.013 | [7] -0.009 | [8] -0.006 | [9] 0.014 | [10] -0.055 | [20] -0.094 | [11] 0.022 | [12] 0.071 | [13] -0.028 | [14] -0.009 | [15] 0.003 | [16] 0.019 | [17] -0.01 | [18] 0.034

DNAH9 (UniProt Q9NYC9)
inactive: [1] -0.032 | [2] 0.03 | [3] 0.041 | [4] -0.053 | [5] 0.061 | [19] 0.009 | [6] -0.018 | [7] -0.083 | [8] -0.017 | [9] -0.023 | [10] -0.013 | [20] -0.019 | [11] -0.006 | [12] 0.056 | [13] 0.033 | [14] -0.013 | [15] -0.011 | [16] 0.011 | [17] -0.024 | [18] 0.009

DLGAP5 (UniProt Q15398)
inactive: [1] 0.016 | [2] -0.011 | [3] 0 | [4] 0.087 | [5] 0.083 | [19] 0.037 | [6] 0.043 | [7] 0.125 | [8] 0.03 | [9] -0.092 | [10] -0.043 | [20] 0.066 | [11] -0.076 | [12] -0.164 | [13] -0.169 | [14] -0.038 | [15] 0.034 | [16] -0.003 | [17] -0.038 | [18] 0.105

DERL2 (UniProt Q9GZP9)
inactive: [1] 0.005 | [2] 0.019 | [3] -0.034 | [4] -0.059 | [5] 0.292 | [19] -0.053 | [6] 0.044 | [7] 0.078 | [8] 0.029 | [9] 0.065 | [10] -0.102 | [20] -0.196 | [11] -0.1 | [12] -0.198 | [13] 0.151 | [14] 0.056 | [15] 0.094 | [16] 0.04 | [17] 0.279 | [18] -0.016

DNAAF5 (UniProt Q86Y56)
inactive: [1] 0.225 | [2] -0.17 | [3] -0.379 | [4] 0.523 | [5] -0.12 | [19] 0.283 | [6] 0.1 | [7] 0.107 | [8] 0.349 | [9] -0.312 | [10] -0.001 | [20] 0.11 | [13] 0.003 | [15] -0.238 | [16] -0.086 | [17] 0.097 | [18] 0.033

DIABLO (UniProt Q9NR28)
inactive: [1] -0.039 | [2] 0.057 | [3] 0.107 | [4] -0.077 | [5] 0.018 | [19] -0.113 | [6] -0.008 | [7] -0.02 | [8] -0.014 | [9] -0.023 | [10] -0.065 | [20] 0.093 | [11] -0.022 | [12] 0.027 | [13] 0.026 | [14] -0.025 | [15] 0.036 | [16] 0.113 | [17] 0.022 | [18] 0.058

DENND4C isoform 7 (UniProt Q5VZ89)
inactive: [1] -0.026 | [2] -0.113 | [3] 0.014 | [4] 0.035 | [5] -0.054 | [19] -0.038 | [6] 0.014 | [7] -0.124 | [8] -0.044 | [9] -0.211 | [10] -0.019 | [20] 0.11 | [11] -0.074 | [12] -0.187 | [13] -0.037 | [14] 0.002 | [15] 0.084 | [16] 0.009 | [17] -0.032 | [18] 0.092

DEK (UniProt P35659)
inactive: [1] 0.042 | [2] 0.078 | [3] 0.075 | [4] -0.088 | [5] 0.1 | [19] -0.063 | [6] 0.059 | [7] 0.107 | [8] -0.121 | [9] -0.02 | [10] 0.007 | [20] 0.02 | [11] -0.082 | [12] -0.01 | [13] -0.064 | [14] 0.012 | [15] 0.034 | [16] 0.046 | [17] -0.052 | [18] 0.012

DHODH (UniProt Q02127)
inactive: [1] 0.021 | [2] 0.023 | [3] 0.027 | [4] -0.018 | [5] 0.007 | [19] 0.063 | [6] 0.037 | [7] -0.074 | [8] -0.017 | [9] 0.014 | [10] -0.042 | [20] -0.049 | [11] 0.003 | [12] -0.002 | [13] 0.031 | [14] -0.036 | [15] 0.026 | [16] -0.022 | [17] 0.046 | [18] 0.035

DMXL1 (UniProt Q9Y485)
inactive: [1] -0.012 | [2] -0.092 | [3] 0.002 | [4] 0.048 | [19] -0.013 | [7] 0 | [8] 0.047 | [9] -0.217 | [10] -0.14 | [20] -0.034 | [11] -0.002 | [12] 0.018 | [13] -0.099 | [14] -0.012 | [15] 0.021 | [16] 0.021 | [17] -0.035 | [18] -0.053

Retrieved one by one from the entries so far (2):
DMXL1 (UniProt Q9Y485)
inactive: [1] -0.012 | [2] -0.092 | [3] 0.002 | [4] 0.048 | [19] -0.013 | [7] 0 | [8] 0.047 | [9] -0.217 | [10] -0.14 | [20] -0.034 | [11] -0.002 | [12] 0.018 | [13] -0.099 | [14] -0.012 | [15] 0.021 | [16] 0.021 | [17] -0.035 | [18] -0.053

DHODH (UniProt Q02127)
inactive: [1] 0.021 | [2] 0.023 | [3] 0.027 | [4] -0.018 | [5] 0.007 | [19] 0.063 | [6] 0.037 | [7] -0.074 | [8] -0.017 | [9] 0.014 | [10] -0.042 | [20] -0.049 | [11] 0.003 | [12] -0.002 | [13] 0.031 | [14] -0.036 | [15] 0.026 | [16] -0.022 | [17] 0.046 | [18] 0.035
